Measurements published in the supplement of paper PMC12067093, “Discovery and optimisation of a covalent ligand for TRIM25 and its application to targeted protein ubiquitination” (Chemical Science, 2025).
Some of the results follow.

Amino acid sequences for entries named in this document (tags omitted). A change or cut given only in a name is not applied to a line headed by its entry.
UniProt P09467: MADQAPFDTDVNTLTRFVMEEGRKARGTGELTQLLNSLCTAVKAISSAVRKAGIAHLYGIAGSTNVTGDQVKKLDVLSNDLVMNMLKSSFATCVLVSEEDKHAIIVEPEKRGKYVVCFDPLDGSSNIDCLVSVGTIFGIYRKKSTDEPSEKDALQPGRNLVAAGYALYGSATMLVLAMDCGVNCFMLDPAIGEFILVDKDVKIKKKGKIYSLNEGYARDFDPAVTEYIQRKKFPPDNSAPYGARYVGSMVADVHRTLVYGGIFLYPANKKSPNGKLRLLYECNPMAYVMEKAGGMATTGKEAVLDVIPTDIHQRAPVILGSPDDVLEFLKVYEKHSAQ
UniProt Q6PCT2: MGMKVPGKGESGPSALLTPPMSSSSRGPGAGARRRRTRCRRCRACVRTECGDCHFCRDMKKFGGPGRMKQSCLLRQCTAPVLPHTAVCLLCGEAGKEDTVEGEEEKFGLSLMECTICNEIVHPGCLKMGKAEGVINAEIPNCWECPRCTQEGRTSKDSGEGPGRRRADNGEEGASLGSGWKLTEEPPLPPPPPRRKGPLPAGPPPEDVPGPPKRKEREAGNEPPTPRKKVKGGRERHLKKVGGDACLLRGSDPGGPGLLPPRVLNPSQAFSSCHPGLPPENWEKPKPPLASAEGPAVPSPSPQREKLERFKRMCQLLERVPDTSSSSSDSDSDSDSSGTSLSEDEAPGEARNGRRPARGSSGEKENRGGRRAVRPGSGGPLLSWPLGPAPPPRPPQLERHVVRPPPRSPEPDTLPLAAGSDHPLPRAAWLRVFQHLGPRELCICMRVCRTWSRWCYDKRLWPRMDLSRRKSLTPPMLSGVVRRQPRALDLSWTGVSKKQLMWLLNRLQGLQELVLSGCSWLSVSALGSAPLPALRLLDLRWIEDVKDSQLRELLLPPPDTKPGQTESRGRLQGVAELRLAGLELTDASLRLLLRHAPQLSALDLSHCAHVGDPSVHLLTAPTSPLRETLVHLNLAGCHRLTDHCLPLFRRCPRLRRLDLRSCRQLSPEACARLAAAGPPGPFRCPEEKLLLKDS
UniProt Q9NSD9: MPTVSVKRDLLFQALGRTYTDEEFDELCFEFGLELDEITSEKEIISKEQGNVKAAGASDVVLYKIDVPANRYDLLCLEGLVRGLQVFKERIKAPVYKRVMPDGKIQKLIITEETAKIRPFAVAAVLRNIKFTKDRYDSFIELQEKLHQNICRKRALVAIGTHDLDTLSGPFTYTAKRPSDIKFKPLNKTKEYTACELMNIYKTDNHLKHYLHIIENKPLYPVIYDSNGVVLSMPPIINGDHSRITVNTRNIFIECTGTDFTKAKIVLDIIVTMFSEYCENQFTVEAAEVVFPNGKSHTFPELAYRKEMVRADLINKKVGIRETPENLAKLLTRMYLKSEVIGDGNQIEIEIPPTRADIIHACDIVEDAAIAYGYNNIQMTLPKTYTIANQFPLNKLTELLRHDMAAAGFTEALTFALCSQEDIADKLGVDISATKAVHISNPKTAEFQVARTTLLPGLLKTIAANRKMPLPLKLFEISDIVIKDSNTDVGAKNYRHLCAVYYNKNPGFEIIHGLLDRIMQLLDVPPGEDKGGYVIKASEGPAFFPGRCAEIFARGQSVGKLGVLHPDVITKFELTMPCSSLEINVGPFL
UniProt Q8TB52: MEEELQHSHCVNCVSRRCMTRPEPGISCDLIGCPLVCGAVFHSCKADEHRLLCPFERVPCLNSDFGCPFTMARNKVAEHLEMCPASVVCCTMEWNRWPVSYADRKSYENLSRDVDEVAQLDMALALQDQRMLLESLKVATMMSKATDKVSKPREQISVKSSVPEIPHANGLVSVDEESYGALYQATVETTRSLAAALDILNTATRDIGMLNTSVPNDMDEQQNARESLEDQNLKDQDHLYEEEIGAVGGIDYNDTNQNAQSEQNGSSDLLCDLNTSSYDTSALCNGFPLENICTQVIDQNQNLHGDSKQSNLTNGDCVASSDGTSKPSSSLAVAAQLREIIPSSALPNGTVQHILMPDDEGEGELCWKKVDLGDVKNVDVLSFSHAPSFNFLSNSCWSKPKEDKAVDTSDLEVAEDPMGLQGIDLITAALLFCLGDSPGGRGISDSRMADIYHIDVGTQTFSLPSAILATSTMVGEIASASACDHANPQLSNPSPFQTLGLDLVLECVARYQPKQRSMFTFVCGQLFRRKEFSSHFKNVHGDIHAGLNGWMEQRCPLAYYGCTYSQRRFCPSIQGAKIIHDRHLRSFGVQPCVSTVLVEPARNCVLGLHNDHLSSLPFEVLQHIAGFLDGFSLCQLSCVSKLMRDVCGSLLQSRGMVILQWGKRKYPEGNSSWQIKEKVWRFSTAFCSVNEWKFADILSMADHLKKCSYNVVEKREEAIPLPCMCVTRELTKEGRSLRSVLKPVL
UniProt P23142: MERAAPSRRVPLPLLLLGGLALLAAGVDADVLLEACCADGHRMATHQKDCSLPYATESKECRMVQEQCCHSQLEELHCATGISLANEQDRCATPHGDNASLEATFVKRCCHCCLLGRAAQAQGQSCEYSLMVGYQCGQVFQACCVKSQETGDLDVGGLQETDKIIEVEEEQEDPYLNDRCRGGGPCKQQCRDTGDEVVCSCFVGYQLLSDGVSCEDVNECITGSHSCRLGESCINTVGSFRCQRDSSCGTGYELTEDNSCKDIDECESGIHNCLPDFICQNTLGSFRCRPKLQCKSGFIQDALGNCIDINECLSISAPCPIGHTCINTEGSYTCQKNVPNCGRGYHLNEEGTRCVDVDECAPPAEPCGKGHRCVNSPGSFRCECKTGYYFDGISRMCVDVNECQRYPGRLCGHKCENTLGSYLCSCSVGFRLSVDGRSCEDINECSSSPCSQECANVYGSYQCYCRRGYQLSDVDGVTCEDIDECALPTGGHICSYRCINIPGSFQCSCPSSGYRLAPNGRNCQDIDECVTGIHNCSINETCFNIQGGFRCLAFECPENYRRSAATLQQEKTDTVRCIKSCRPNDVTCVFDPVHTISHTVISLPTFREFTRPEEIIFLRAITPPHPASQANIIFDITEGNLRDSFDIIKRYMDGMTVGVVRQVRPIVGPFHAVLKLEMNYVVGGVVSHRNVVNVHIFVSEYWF
UniProt Q53R41: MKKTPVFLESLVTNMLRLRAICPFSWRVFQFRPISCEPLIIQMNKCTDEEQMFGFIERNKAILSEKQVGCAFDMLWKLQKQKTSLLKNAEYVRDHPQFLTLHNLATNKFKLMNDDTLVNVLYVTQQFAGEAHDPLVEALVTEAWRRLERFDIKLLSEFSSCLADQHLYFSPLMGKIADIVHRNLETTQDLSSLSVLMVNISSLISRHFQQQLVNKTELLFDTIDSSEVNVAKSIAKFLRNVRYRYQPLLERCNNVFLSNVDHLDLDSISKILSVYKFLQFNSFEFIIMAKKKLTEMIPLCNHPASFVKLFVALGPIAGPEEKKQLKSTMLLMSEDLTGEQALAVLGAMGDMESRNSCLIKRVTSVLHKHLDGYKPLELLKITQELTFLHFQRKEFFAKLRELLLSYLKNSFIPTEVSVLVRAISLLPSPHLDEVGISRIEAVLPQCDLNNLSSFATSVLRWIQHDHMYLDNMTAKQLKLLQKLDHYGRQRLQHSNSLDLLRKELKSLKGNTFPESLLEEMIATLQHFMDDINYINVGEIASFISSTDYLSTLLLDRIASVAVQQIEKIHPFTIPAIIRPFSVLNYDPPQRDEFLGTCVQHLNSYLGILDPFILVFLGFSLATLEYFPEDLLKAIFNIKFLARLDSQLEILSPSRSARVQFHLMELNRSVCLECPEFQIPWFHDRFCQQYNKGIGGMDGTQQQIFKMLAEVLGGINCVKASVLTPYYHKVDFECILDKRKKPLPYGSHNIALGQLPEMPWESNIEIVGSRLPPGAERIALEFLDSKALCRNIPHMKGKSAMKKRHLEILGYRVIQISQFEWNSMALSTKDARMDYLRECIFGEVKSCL
UniProt Q9NYY8: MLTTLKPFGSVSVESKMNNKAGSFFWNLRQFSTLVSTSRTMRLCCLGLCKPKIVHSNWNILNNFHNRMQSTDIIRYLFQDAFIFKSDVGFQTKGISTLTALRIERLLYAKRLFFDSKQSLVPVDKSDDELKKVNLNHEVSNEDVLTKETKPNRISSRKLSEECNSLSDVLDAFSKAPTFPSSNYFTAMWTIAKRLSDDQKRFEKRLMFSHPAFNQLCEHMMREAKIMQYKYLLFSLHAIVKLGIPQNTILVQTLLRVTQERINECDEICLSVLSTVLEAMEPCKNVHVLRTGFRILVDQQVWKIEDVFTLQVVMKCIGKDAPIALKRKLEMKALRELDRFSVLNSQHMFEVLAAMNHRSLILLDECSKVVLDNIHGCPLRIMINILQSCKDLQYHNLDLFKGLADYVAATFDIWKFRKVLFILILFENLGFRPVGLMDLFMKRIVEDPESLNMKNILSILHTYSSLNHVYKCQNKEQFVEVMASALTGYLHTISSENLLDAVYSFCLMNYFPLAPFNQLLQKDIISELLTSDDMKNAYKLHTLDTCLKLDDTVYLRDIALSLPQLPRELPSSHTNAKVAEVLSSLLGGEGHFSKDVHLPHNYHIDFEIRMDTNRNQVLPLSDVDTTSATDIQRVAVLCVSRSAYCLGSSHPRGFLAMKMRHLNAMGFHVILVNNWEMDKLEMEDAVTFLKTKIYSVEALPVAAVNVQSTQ
UniProt Q52LJ0: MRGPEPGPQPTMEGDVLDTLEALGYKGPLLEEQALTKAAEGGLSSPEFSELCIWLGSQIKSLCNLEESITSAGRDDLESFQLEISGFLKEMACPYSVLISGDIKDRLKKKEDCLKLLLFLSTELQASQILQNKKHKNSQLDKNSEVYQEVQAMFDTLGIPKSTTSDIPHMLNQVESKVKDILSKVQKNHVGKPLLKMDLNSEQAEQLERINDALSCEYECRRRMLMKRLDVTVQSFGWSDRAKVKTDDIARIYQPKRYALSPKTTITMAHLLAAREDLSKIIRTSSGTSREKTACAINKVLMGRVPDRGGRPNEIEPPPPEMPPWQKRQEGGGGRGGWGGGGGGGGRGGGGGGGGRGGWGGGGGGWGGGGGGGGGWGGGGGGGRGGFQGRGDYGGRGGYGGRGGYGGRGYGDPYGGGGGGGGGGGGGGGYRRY
UniProt Q9BZQ8: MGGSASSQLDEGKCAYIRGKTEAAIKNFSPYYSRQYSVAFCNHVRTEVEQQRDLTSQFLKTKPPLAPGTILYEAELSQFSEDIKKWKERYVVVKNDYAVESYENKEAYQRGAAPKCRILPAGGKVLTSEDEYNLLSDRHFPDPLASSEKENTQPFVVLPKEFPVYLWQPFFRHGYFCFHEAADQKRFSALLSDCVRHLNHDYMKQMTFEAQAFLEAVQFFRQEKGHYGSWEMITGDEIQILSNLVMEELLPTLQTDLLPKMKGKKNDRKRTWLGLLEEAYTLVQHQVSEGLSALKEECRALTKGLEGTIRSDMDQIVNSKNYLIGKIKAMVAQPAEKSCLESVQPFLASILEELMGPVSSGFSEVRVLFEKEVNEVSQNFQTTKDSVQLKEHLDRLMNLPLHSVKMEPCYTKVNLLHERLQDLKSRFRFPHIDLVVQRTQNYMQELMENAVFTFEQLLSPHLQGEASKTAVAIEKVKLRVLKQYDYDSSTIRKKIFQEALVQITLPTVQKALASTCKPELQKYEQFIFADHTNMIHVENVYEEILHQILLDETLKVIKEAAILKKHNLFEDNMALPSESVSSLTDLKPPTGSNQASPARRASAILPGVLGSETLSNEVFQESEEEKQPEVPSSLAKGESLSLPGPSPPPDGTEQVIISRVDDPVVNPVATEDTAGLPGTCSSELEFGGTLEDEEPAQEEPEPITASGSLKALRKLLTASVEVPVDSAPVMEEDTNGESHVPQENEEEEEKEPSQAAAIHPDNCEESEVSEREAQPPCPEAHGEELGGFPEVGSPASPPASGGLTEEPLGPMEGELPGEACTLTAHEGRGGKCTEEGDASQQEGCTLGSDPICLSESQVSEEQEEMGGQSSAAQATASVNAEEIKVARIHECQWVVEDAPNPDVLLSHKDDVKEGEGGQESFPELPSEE
UniProt P22830: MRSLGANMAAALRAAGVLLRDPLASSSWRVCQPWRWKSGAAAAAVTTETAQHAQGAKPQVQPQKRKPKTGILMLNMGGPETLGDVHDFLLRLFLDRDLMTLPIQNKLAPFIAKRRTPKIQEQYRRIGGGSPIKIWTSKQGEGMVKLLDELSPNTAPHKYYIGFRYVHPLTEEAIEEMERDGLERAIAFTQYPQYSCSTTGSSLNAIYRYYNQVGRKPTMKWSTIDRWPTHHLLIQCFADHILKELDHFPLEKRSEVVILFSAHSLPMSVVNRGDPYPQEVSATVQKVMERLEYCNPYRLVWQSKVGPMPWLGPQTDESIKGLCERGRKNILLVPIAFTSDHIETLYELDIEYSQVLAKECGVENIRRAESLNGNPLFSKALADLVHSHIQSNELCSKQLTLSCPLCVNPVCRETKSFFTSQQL

compound: CC1Cc2ccccc2N1C(=O)C1CCCN(C1)C(=O)CCl (mixture of isomers) [TRIM25 ligand 11 (diastereomer mixture)]; assay: probe-labelled cysteine peptide fold change vs DMSO (competition) (log2 fold change); higher = less target engagement (more negative = stronger competition); conditions: 10 µM; THP-1; incubation time: 4 h
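Note: competitive chemoproteomic profiling in live THP-1 cells with an iodoacetamide desthiobiotin (IA-DTB) probe, comparing probe-labelled peptide intensities in compound-treated cells against DMSO-treated controls.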

Target | probe-labelled cysteine peptide fold change
FBP1_P09467_39_GTGELTQLLNSLCTAVK (UniProt P09467) | 0.342
FANCG_O15287_503_EQGAAFNCEQGCK (UniProt O15287) | 0.258
FBXL19_Q6PCT2_637_ETLVHLNLAGCHR (UniProt Q6PCT2) | 0.0561
FARSB_Q9NSD9_498_HLCAVYYNK (UniProt Q9NSD9) | 0.0584
FBXO30_Q8TB52_725_EEAIPLPCMCVTR (UniProt Q8TB52) | 0.13
FASN_P49327_1828_CTVFHGAQVEDAFR (UniProt P49327) | 0.0828
FBLN1_P23142_109_CCHCCLLGR (UniProt P23142) | 0.315
FAR2_Q96K12_104+111_EDMQELLSCTNIIFHCAATVR (UniProt Q96K12) | 0.0855
FAR1_Q8WVX9_111_EVIIDSTNIIFHCAATVR (UniProt Q8WVX9) | 0.259
FASTKD1_Q53R41_673_SVCLECPEFQIPWFHDR (UniProt Q53R41) | 0.021
FASTKD2_Q9NYY8_366_SLILLDECSK (UniProt Q9NYY8) | 0.238
FASN_P49327_2369_AKLTPGCEAEAETEAICFFVQQFTDMEHNR (UniProt P49327) | -0.0758
FAM136A_Q96C01_53_QVHQCIER (UniProt Q96C01) | -0.0424
FAM208B_Q5VWN6_1432_LHGTQCEK (UniProt Q5VWN6) | -0.0874
FAT1_Q14517_574_INCEGTIPR (UniProt Q14517) | 0.237
FAM98B_Q52LJ0_93_EMACPYSVLISGDIK (UniProt Q52LJ0) | 0.0701
FAM76B_Q5HYJ3_73_PCQYCNIIAAFIGTK (UniProt Q5HYJ3) | -0.263
FBXL12_Q9NXK8_134_TLELHSCEISMAWLHK (UniProt Q9NXK8) | 0.109
FAM129A_Q9BZQ8_891_IHECQWVVEDAPNPDVLLSHK (UniProt Q9BZQ8) | 0.0168
FBXO45_P0C2W1_119_AFQHAFSTNDCSR (UniProt P0C2W1) | 0.166

Target | probe-labelled cysteine peptide fold change
FASN_P49327_1227_ACLDTAVENMPSLK (UniProt P49327) | -0.0983
FAM98C_Q17RN3_340_REDGGPQCWGR (UniProt Q17RN3) | -0.121
FBXO30_Q8TB52_90_VAEHLEMCPASVVCCTMEWNR (UniProt Q8TB52) | -0.194
FAM98B_Q52LJ0_220_INDALSCEYECR (UniProt Q52LJ0) | -0.00202
FECH_P22830_403_QLTLSCPLCVNPVCR (UniProt P22830) | 0.0323
FARSB_Q9NSD9_255_NIFIECTGTDFTK (UniProt Q9NSD9) | 0.133
FAM129A_Q9BZQ8_177_HGYFCFHEAADQK (UniProt Q9BZQ8) | 0.0728
FBN2_P35556_1812_AVDIDECK (UniProt P35556) | -0.143
FER_P16591-3_23_DQLESGFGSQSCK (UniProt P16591) | -0.121
FCGR2A_P12318_62_LEPPWINVLQEDSVTLTCQGAR (UniProt P12318) | 0.157
FCGRT_P55899_275_SGDEHHYCCIVQHAGLAQPLR (UniProt P55899) | -0.0334
FASN_P49327_2010_EACPELDYFVVFSSVSCGR (UniProt P49327) | -0.103
FES_P07332_372_QVLQEALQGLQVALCSQAK (UniProt P07332) | 0.022
FBXL20_Q96IG2_351+364_HLGNGACAHDQLEVIELDNCPLITDASLEHLK (UniProt Q96IG2) | 0.109
FANCI_Q9NVI1_594_CLSQQADVR (UniProt Q9NVI1) | 0.118
FERMT3_Q86UX7_439_CQDEQQYAR (UniProt Q86UX7) | 0.232
FANCD2_Q9BXW9_729_LVSPLCLAPYFR (UniProt Q9BXW9) | -0.128
FBN2_P35556_1162_NCMDIDECERNPLLCR (UniProt P35556) | -0.0599
FBXL19_Q6PCT2_644_LTDHCLPLFR (UniProt Q6PCT2) | -0.154
